Experimental data reported in article PMC5703730.
No constants are given. Whether binding was seen depends on the method and setting. Binding seen in cells or lysates may run through a third protein. Some entries that bind do so weakly or less than the wild type.

Amino acid sequences for entries named in this document (tags omitted).
UniProt Q95V55: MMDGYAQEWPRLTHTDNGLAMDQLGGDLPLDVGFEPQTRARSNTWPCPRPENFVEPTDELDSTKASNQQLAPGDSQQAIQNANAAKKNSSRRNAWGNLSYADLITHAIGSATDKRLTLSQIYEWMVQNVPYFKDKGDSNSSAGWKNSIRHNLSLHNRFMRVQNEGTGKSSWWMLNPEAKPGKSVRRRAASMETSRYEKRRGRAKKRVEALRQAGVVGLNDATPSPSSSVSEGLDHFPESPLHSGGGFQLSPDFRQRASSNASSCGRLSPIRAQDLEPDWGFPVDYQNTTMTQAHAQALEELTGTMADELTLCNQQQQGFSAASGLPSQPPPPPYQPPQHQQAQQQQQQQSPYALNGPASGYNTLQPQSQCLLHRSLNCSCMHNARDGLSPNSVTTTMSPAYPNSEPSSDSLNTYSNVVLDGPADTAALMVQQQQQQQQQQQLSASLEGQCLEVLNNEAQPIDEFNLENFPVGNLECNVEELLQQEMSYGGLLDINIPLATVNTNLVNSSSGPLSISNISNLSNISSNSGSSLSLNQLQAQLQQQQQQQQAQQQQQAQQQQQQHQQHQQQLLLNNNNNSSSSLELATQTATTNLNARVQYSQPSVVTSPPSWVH

Assays:
[1] = target: Drosophila FOXO (dFOXO), endogenous (Drosophila (endogenous in Kc167 cells)) (UniProt Q95V55); assay: co-IP; endogenous proteins, nuclear extracts of Kc167 cells; anti-dFOXO antibodies used in pull-down, Dynabeads Protein A; western blot for Kr-h1; rabbit IgG as negative control
[2] = target: Drosophila FOXO (dFOXO), endogenous (Drosophila (endogenous in Kc167 cells)) (UniProt Q95V55); assay: co-IP; endogenous proteins, cytoplasmic extracts of Kc167 cells; anti-dFOXO antibodies used in pull-down, Dynabeads Protein A; western blot for Kr-h1; rabbit IgG as negative control

binding [1]: binds
B1: Kruppel homolog 1 (Kr-h1), endogenous (protein, UniProt P08155 1-845)
chain: MTESKNDTKSWAPKQIWIKDVLKKSGTELLDISKSPAKAVAVKKSPAKDSATTKMVYYSANQLLIKTEQSSQAQFCLQVPPPLTATTTSVGLGVPPSGGQQEHFELLQTPQQRQMQLQLQDQHQQEQQQFVSYQLAIQQHQKQQQQQQHESITNAAPTAAPSAQRIKTEPVGGFPASAAVVSQVRKPSASKPQFKCDQCGMTFGSKSAHTSHTKSHSKNQDLSLNGASGAGVAAPVSTAAIELNDAGLPVGIPKSPTIKPLANVAAGADPYQCNVCQKTFAVPARLIRHYRTHTGERPFECEFCHKLFSVKENLQVHRRIHTKERPYKCDVCGRAFEHSGKLHRHMRIHTGERPHKCSVCEKTFIQSGQLVIHMRTHTGEKPYKCPEPGCGKGFTCSKQLKVHSRTHTGEKPYHCDICFRDFGYNHVLKLHRVQHYGSKCYKCTICDETFKNKKEMEAHIKGHANEVPDDEAEAAAASAAASTSAGSSAGSPSLQGVSSNSESSNHSPPSSPPATKKPRQARQPRVSKTVAATLSIPTSSPLSPSSLSSTYSPSASSMASPPPTSAHYLPVQMEADALSRDSGVSSAQPAHSTYADEEPTDLSMQQVQGQLPESTVDYYQAPPSLLELQPQPAGLTINPALLEAASIARRHDDNDDQVQDEDVHAAAWQMMQLCRGHGSLPPTEQPAPSHQPQVPTLHVSDLAANYDDTHEATVLIEHFKRGDLARHGLHKGYAPVPKYESALPNPDVVRRVEAAIGLRSSTESPERSSSPESDSLMMADRNVMTLPLRKRKHYMNKGDDGQVDSEKASGDGTSAAGGAASVGAGDGPGSKVMRMSSVIQFAKAS
binding [2]: no binding (condition: cytoplasmic extracts)
